Measurements taken from PMC10113393.

The chains behind the UniProt entries cited, without tags or fusion partners.
UniProt P33176: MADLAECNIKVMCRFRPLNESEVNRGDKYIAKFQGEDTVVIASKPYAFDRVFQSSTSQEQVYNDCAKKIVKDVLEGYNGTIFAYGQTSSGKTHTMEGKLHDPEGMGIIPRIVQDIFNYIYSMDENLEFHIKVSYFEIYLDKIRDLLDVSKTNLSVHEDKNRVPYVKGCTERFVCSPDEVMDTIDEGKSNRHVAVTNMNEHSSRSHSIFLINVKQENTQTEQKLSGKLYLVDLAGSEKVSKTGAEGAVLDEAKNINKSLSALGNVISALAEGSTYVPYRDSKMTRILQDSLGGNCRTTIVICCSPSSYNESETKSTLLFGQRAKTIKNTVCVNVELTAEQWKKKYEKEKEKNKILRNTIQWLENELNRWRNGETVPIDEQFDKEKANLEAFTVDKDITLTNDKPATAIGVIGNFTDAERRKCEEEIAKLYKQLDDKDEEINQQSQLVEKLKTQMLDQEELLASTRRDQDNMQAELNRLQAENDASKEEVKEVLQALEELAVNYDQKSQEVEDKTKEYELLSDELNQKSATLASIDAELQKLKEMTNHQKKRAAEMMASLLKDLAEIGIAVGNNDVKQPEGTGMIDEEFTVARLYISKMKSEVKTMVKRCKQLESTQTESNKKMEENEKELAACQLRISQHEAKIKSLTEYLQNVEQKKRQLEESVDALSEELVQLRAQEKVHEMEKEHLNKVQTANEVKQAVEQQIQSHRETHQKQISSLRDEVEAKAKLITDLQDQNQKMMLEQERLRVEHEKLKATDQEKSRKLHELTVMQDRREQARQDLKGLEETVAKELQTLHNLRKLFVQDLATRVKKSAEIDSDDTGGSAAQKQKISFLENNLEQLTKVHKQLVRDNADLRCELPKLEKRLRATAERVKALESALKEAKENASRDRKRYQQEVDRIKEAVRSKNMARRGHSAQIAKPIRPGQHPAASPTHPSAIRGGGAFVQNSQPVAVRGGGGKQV
UniProt O00429: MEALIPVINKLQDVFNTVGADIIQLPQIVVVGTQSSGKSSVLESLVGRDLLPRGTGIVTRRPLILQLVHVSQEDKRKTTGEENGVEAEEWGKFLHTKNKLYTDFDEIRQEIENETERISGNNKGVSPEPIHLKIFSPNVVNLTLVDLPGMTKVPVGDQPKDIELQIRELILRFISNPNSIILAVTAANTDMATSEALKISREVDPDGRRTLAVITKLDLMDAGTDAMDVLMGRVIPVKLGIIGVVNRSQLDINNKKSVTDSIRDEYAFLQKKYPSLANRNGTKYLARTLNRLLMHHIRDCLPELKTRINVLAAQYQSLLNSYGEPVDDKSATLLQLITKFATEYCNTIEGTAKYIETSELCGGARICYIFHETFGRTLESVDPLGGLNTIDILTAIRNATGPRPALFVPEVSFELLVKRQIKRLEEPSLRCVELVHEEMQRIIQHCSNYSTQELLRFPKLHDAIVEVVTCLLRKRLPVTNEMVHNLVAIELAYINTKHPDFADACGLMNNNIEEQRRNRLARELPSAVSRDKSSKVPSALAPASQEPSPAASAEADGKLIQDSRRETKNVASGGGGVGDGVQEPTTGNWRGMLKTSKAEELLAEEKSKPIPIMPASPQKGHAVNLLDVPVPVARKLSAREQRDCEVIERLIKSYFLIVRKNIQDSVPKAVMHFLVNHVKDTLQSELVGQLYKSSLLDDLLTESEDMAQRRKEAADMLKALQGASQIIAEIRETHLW

Molecular target: Kinesin family member 5B (human (endogenous in A549 and SK-N-BE(2)C)) (UniProt P33176)
Assay: affinity purification with mass spectrometry; total protein of A549 cells incubated with the antibody against KIF5B; IgG isotype control; Dynabeads Protein A; nano-LC-MS/MS

binding: binds
Substance: GTPase dynamin-related protein 1 (from UniProt O00429 1-736)

Results are given in words; binding and its absence hold for the method and conditions named. Binding seen in cells or lysates may run through a third protein. These calls come from enrichment with a bait or labelling near it, and not all partners need be listed.
